PMC7900799, “Synthesis, antibiotic structure–activity relationships, and cellulose dissolution studies of new room-temperature ionic liquids derived from lignin” (Biotechnology for Biofuels, 2021)

Test: Cellulose dissolution in ILs (gravimetric, light microscopy, FTIR)
Type: physicochemical
Details: 120 °C, 20 min incubation

SMILES: COc1ccc(C[N+](C)(C)C)cc1OC [Compound 8]
- cellulose concentration at which cellulose precipitation was observed: 4 wt%
